The text below walks through data of the supplement of paper PMC3334620.

In all, about 33,000 sequences were measured (“E-score (-0.5 to 0.5)”: median about -8e-05, highest 2% from about 0.23 on). This is one part of the list.

For the assay, the target named is T1, Nrg2 (UniProt P38082).
T1 sequence: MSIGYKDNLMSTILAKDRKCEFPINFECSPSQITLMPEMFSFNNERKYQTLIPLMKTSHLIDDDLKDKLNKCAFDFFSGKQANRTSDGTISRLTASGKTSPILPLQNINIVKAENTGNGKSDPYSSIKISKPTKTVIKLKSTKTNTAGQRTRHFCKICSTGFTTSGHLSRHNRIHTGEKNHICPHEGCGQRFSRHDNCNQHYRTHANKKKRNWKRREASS
Kind of assay: PBM E-score (8-mer binding enrichment) (E-score (-0.5 to 0.5)); higher = stronger / more preferred TF binding. The conditions noted are these: protein concentration: 100 nM; construct: GST-full length. The gist of the method:
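Detection of bound protein used fluorescent anti-GST, with scans normalised by masliner. The proteins were GST-tagged yeast transcription factors applied at about 100-200 nM to universal all-10-mer Agilent arrays made double-stranded by primer extension. Each ungapped eight-base word, pooled with its reverse complement, was scored with an E-score from the Universal PBM Analysis Suite.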
For ACTAATCA, the “PBM E-score” value was determined as 0.0989.
For the sequence AATGGAAG, the “PBM E-score” value came to 0.0112.
Regarding CTGCCGAA, the “PBM E-score” value is -0.21.
With CACTACCC the figure was 0.155; with ACGACATC, -0.0348; with ACTGGCGA, -0.101.
Consider CCTGGAAG, for which the “PBM E-score” value is -0.0758.
In the case of ACACCGAG, the “PBM E-score” value is -0.0836.
For the sequence CAGGATCG, the “PBM E-score” value was -0.21.
Consider ACTAGCGC, for which the “PBM E-score” value is -0.0303.
For CCCGGAAA, the “PBM E-score” value turned out to be 0.129.
The figure for AAAGAGAG is -0.132.
With CATAAGGA the figure was -0.142.
The figure for AGTCATCC is -0.23.
Turning to GCGCGTAC, the “PBM E-score” value is 0.158.
With CAGCCCGG the figure was -0.0609; with AGGCTCTA, -0.242; with CCCATCGG, -0.0792.
As to ACTCTTGG, the “PBM E-score” value is -0.173.
Take CTCCGACA: the “PBM E-score” value was -0.135.
Turning to ATCGCTCC, the “PBM E-score” value was -0.156.
For TCAAGAGA, the “PBM E-score” value is 0.0364.
As to TCATATCA, the “PBM E-score” value turned out to be 0.0508.
In the case of CCATCCAC, the “PBM E-score” value came to 0.0309.
The figure for CCGCAACG is 0.0857; for ATTATCAA it is 0.1; for AACTGATC it is -0.0368.
Take ATAGGGTG: the “PBM E-score” value is -0.0278.
The figure for GTTGGATA is -0.0617; for ACTATGAC it is 0.00865; for ATTTGTCG it is 0.187.
With ACGAACTG the figure was -0.0717; with AAATTACG, -0.0526; with AGGGATGC, -0.099.
Take ACGTAAGT: the “PBM E-score” value was -0.229.
Take AAGCCTTG: the “PBM E-score” value is -0.0475.
ACCTTGAA: the “PBM E-score” value was determined as 0.0775.
In the case of CCGGAGCC, the “PBM E-score” value is -0.189.
The figure for ATACGATA is 0.0101; for GCCTGGCC it is -0.078; for CCTATCCA it is -0.149.
With GACTATGC the figure was -0.0495; with CCTCATGA, 0.107; with TCACATCA, 0.152.
In the case of AGGGCTAT, the “PBM E-score” value was -0.213.
With ACCTAGTC the figure was -0.129; with ATCCGTTG, 0.179; with TACACGAA, 0.18.
The figure for GACCACCC is -0.152; for ATGGATGA it is 0.0292.
With CAAGAGGG the figure was -0.0388; with CGGGAGAA, -0.0749; with AGGAGTTA, 0.0585.
As to TACGGGAA, the “PBM E-score” value is -0.0757.
Regarding ACCACCCG, the “PBM E-score” value was -0.154.
Take AACGTATG: the “PBM E-score” value was -0.0217.
With CAATGTAA, the “PBM E-score” value was 0.0359.
With CAAGTGAG the figure was 0.0108; with AATAGAGT, -0.201; with TAAAACGA, -0.173.
With ACAACCAG the figure was 0.101.
With ATGTACCC the figure was 0.0315; with AGCAGGGA, 0.0712; with AAAACCGA, 0.0792.
With GAACGACC, the “PBM E-score” value was -0.211.
The figure for CCTGAAGA is 0.122; for TCATGACA it is 0.177.
On to ATTAATCA, for which the “PBM E-score” value is 0.171.
TCCCGTCA: the “PBM E-score” value was -0.058.
On to CGCGATGA, for which the “PBM E-score” value turned out to be 0.213.
The figure for AATGTCTG is 0.0226; for AATCGAGG it is 0.248; for CTCCACAG it is -0.227.
In the case of CAGCAGAA, the “PBM E-score” value turned out to be 0.0568.
Regarding CCTGCGAA, the “PBM E-score” value is -0.0333.
The figure for GCGTCGAA is 0.163; for CCCATCCC it is -0.0779; for CTAACTAG it is 0.115.
Consider AACATGAG, for which the “PBM E-score” value was -0.163.
As to ATGGCAAA, the “PBM E-score” value is -0.0052.
Consider AAACATCC, for which the “PBM E-score” value was 0.0804.
Take CTACACGA: the “PBM E-score” value was 0.111.
Consider AATGTATC, for which the “PBM E-score” value stood at 0.125.
As to CGCATGAA, the “PBM E-score” value was 0.0505.
Consider AGAAGAAC, for which the “PBM E-score” value was -0.0494.
As to AGGCACAT, the “PBM E-score” value was 0.121.
